Experimental data from patent publication US11053230B2, “3-hydroxy-imidazolidin-4-one compounds as inhibitors of indoleamine 2,3-dioxygenase” (Netherlands Translational Research Center B.V., priority 2017, dated 2021).
Some results were stated once for a whole list of compounds, not compound by compound.

The chains behind the UniProt entries cited, without tags or fusion partners.
UniProt P14902, whole entry: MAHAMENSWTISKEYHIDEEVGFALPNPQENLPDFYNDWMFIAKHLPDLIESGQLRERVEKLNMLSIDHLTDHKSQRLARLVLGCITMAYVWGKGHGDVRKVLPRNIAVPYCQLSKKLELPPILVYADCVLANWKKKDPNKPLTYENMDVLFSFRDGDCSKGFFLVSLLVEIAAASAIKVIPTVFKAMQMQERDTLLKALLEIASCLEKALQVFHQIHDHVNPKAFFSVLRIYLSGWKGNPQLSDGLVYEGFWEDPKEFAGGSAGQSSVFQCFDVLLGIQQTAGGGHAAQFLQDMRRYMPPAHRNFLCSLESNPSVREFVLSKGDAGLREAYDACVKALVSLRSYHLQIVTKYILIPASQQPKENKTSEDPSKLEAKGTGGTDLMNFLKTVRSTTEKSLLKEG

Biological target: T1, IDO1 (Homo sapiens, UniProt P14902)
T1 construct: Recombinant full-length IDO1 (Seegers, N., et al.) and all other assay components were diluted in IDO1 reaction buffer; made in house
Assay: Cell-based assay for IDO1 in A-375 melanoma cells
Conditions: interferon-γ stimulation, 48 hours, read-out: IC50, cell-based assay for IDO1 (NFK levels)

`O=C1CN(C(=O)c2c(F)cc(C#CC3CC3)cc2F)C(c2cc(Br)cs2)N1O` (single isomer, unassigned) [Example 47b, 2-(4-Bromo-2-thienyl)-1-[4-(2-cyclopropylethynyl)-2,6-difluoro-benzoyl]-3-hydroxy-imidazolidin-4-one] was tested, and the IC50 was < 5 µM.

For `COc1cc(F)c(C(=O)N2CC(=O)N(O)C2c2cc(Br)cs2)c(F)c1` (stereo not drawn) [Example 51, 2-(4-Bromo-2-thienyl)-1-(2,6-difluoro-4-methoxy-benzoyl)-3-hydroxy-imidazolidin-4-one], the IC50 was < 5 µM.

For `O=C1CN(C(=O)c2c(F)cccc2F)C(c2csc(Br)c2)N1O` (single isomer, unassigned) [Example 46b, 2-(5-Bromo-3-thienyl)-1-(2,6-difluorobenzoyl)-3-hydroxy-imidazolidin-4-one], the IC50 was < 5 µM.

With `Cc1ccc(F)c(C(=O)N2CC(=O)N(O)C2c2cc(Br)cs2)c1F` (stereo not drawn) [Example 77, 2-(4-Bromo-2-thienyl)-1-(2,6-difluoro-3-methyl-benzoyl)-3-hydroxy-imidazolidin-4-one] the IC50 was < 5 µM.

For `NS(=O)(=O)NCC#Cc1cc(F)c(C(=O)N2CC(=O)N(O)C2c2cc(Br)cs2)c(F)c1` (stereo not drawn) [Example 80, 2-(4-Bromo-2-thienyl)-1-[2,6-difluoro-4-[3-(sulfamoylamino)prop-1-ynyl]benzoyl]-3-hydroxy-4-oxo-imidazolidine], the IC50 was < 5 µM.

In the case of `O=C1CN(C(=O)c2c(F)cccc2F)C(c2cc(Br)cs2)N1O` (single isomer, unassigned) [Example 48a, 2-(4-Bromo-2-thienyl)-1-(2,6-difluorobenzoyl)-3-hydroxy-imidazolidin-4-one], the IC50 is reported as < 5 µM.

In the case of `COc1ccc(F)c(C(=O)N2CC(=O)N(O)C2c2cc(Br)cs2)c1F` (stereo not drawn) [Example 75, 2-(4-Bromo-2-thienyl)-1-(2,6-difluoro-3-methoxy-benzoyl)-3-hydroxy-imidazolidin-4-one], the IC50 is reported as < 5 µM.

For `CC(C)C#Cc1cc(F)c(C(=O)N2CC(=O)N(O)C2c2cc(Br)cs2)c(F)c1` (stereo not drawn) [Example 50, 2-(4-Bromo-2-thienyl)-1-[2,6-difluoro-4-(3-methylbut-1-ynyl)benzoyl]-3-hydroxy-imidazolidin-4-one], the IC50 was < 5 µM.

`O=C1CN(C(=O)c2c(F)cc(Br)cc2F)C(c2cc(Br)cs2)N1O` (stereo not drawn) [Example 52, 1-(4-Bromo-2,6-difluoro-benzoyl)-2-(4-bromo-2-thienyl)-3-hydroxy-imidazolidin-4-one] was tested, and the IC50 was < 5 µM.

In the case of `O=C1CN(C(=O)c2c(F)cc(-c3cccnc3)cc2F)C(c2cc(Br)cs2)N1O` (stereo not drawn) [Example 88, 2-(4-Bromo-2-thienyl)-1-[2,6-difluoro-4-(3-pyridyl)benzoyl]-3-hydroxy-imidazolidin-4-one], the IC50 is reported as < 5 µM.

With `C[C@@H](c1ccccc1)N1CC(=O)N(O)C1c1ccc(Br)s1` (single isomer, unassigned) [Example 120b] the IC50 was < 5 µM.

For `Cn1cc(-c2cc(F)c(C(=O)N3CC(=O)N(O)C3c3cc(Br)cs3)c(F)c2)cn1` (stereo not drawn) [Example 86, 2-(4-Bromo-2-thienyl)-1-[2,6-difluoro-4-(1-methylpyrazol-4-yl)benzoyl]-3-hydroxy-imidazolidin-4-one], the IC50 was < 5 µM.

With `C#Cc1cc(F)c(C(=O)N2CC(=O)N(O)C2c2cc(Br)cs2)c(F)c1` (stereo not drawn) [Example 38, 2-(4-Bromo-2-thienyl)-1-(4-ethynyl-2,6-difluoro-benzoyl)-3-hydroxy-imidazolidin-4-one] the IC50 was < 5 µM.

For `C[C@@H](c1ccccc1)N1CC(=O)N(O)C1c1cc(Br)cs1` (single isomer, unassigned) [Example 118b], the IC50 was < 5 µM.

With `O=C1CN(C(=O)c2c(F)cccc2C(F)(F)F)C(c2csc(Br)c2)N1O` (stereo not drawn) [Example 100, 2-(5-Bromo-3-thienyl)-1-[2-fluoro-6-(trifluoromethyl)benzoyl]-3-hydroxy-imidazolidin-4-one] the IC50 was < 5 µM.

In the case of `[2H]C([2H])([2H])c1sc(C2N(O)C(=O)CN2C(=O)c2c(F)cccc2F)cc1Br` (stereo not drawn) [Example 114, 2-[4-Bromo-5-(trideuteriomethyl)-2-thienyl]-1-(2,6-difluorobenzoyl)-3-hydroxy-imidazolidin-4-one], the IC50 is reported as < 5 µM.

`O=C1CN(C(=O)c2c(F)cc(C#CC3CC3)cc2F)C(c2cc(Br)cs2)N1O` (stereo not drawn) [Example 39, 2-(4-Bromo-2-thienyl)-1-[4-(2-cyclopropylethynyl)-2,6-difluoro-benzoyl]-3-hydroxy-imidazolidin-4-one] was tested, and the IC50 was < 5 µM.

For `O=C1CN(C(=O)c2c(F)ccc(Br)c2F)C(c2cc(Br)cs2)N1O` (stereo not drawn) [Example 74, 1-(3-Bromo-2,6-difluoro-benzoyl)-2-(4-bromo-2-thienyl)-3-hydroxy-imidazolidin-4-one], the IC50 was < 5 µM.

In the case of `O=C1CN(C(=O)c2c(F)ccc(-c3cccc4ccccc34)c2F)C(c2cc(Br)cs2)N1O` (stereo not drawn) [Example 134, 2-(4-Bromo-2-thienyl)-1-[2,6-difluoro-3-(1-naphthyl)benzoyl]-3-hydroxy-imidazolidin-4-one], the IC50 is reported as < 5 µM.

In the case of `Cc1cc(F)c(C(=O)N2CC(=O)N(O)C2c2cc(Br)cs2)c(F)c1` (stereo not drawn) [Example 84, 2-(4-Bromo-2-thienyl)-1-(2,6-difluoro-4-methyl-benzoyl)-3-hydroxy-imidazolidin-4-one], the IC50 is reported as < 5 µM.

For `O=C1CN(C(=O)c2ccncc2F)C(c2cc(Br)cs2)N1O` (stereo not drawn) [Example 73, 2-(4-Bromo-2-thienyl)-1-(3-fluoropyridine-4-carbonyl)-3-hydroxy-imidazolidin-4-one], the IC50 was < 5 µM.

`O=C1CN(Cc2ccccc2F)C(c2csc(Br)c2)N1O` (stereo not drawn) [Example 42, 2-(5-Bromo-3-thienyl)-1-[(2-fluorophenyl)methyl]-3-hydroxy-imidazolidin-4-one] was tested, and the IC50 was < 5 µM.

With `O=C1CN(C(=O)c2c(F)cccc2F)C(c2csc([N+](=O)[O-])c2)N1O` (stereo not drawn) [Example 20, 1-(2,6-Difluorobenzoyl)-3-hydroxy-2-(5-nitro-3-thienyl)imidazolidin-4-one] the IC50 was < 5 µM.

For `CN(C)c1cc(F)c(C(=O)N2CC(=O)N(O)C2c2cc(Br)cs2)c(F)c1` (stereo not drawn) [Example 97, 2-(4-Bromo-2-thienyl)-1-[4-(dimethylamino)-2,6-difluoro-benzoyl]-3-hydroxy-imidazolidin-4-one], the IC50 was < 5 µM.

In the case of `C#Cc1ccc(F)c(C(=O)N2CC(=O)N(O)C2c2cc(Br)cs2)c1F` (stereo not drawn) [Example 127, 2-(4-Bromo-2-thienyl)-1-(3-ethynyl-2,6-difluoro-benzoyl)-3-hydroxy-imidazolidin-4-one], the IC50 is reported as < 5 µM.

With `O=C1CN(C(=O)c2ccc(C(F)(F)F)cc2F)C(c2cc(Br)cs2)N1O` (stereo not drawn) [Example 64, 2-(4-Bromo-2-thienyl)-1-[2-fluoro-4-(trifluoromethyl)benzoyl]-3-hydroxy-imidazolidin-4-one] the IC50 was < 5 µM.

In the case of `Cc1cccc(F)c1C(=O)N1CC(=O)N(O)C1c1cc(Br)cs1` (stereo not drawn) [Example 65, 2-(4-Bromo-2-thienyl)-1-(2-fluoro-6-methyl-benzoyl)-3-hydroxy-imidazolidin-4-one], the IC50 is reported as < 5 µM.

For `O=C1CN(C(=O)c2c(F)cccc2F)C(c2ccc(Br)s2)N1O` (single isomer, unassigned) [Example 49a, 2-(5-Bromo-2-thienyl)-1-(2,6-difluorobenzoyl)-3-hydroxy-imidazolidin-4-one], the IC50 was < 5 µM.

For `O=C1CN(C(=O)c2c(F)ccc(C(F)(F)F)c2F)C(c2cc(Br)cs2)N1O` (stereo not drawn) [Example 76, 2-(4-Bromo-2-thienyl)-1-[2,6-difluoro-3-(trifluoromethyl)benzoyl]-3-hydroxy-imidazolidin-4-one], the IC50 was < 5 µM.

For `Cc1cc(C2N(O)C(=O)CN2C(=O)c2c(F)cccc2F)sc1Cl` (stereo not drawn) [Example 112, 2-(5-Chloro-4-methyl-2-thienyl)-1-(2,6-difluorobenzoyl)-3-hydroxy-imidazolidin-4-one], the IC50 was < 5 µM.

In the case of `O=C1CN(C(=O)c2c(F)cccc2F)C(c2cc(C3CC3)cs2)N1O` (stereo not drawn) [Example 109, 2-(4-Cyclopropyl-2-thienyl)-1-(2,6-difluorobenzoyl)-3-hydroxy-imidazolidin-4-one], the IC50 is reported as < 5 µM.

With `O=C1CN(C(=O)c2c(F)cccc2F)C(c2cc(Br)cs2)N1O` (single isomer, unassigned) [Example 48b, 2-(4-Bromo-2-thienyl)-1-(2,6-difluorobenzoyl)-3-hydroxy-imidazolidin-4-one] the IC50 was < 5 µM.

In the case of `Cc1ccccc1-c1ccc(F)c(C(=O)N2CC(=O)N(O)C2c2cc(Br)cs2)c1F` (stereo not drawn) [Example 133, 2-(4-Bromo-2-thienyl)-1-[2,6-difluoro-3-(o-tolyl)benzoyl]-3-hydroxy-imidazolidin-4-one], the IC50 is reported as < 5 µM.

In the case of `CS(=O)(=O)c1ccc(-c2ccc(C(=O)N3CC(=O)N(O)C3c3cc(Br)cs3)cc2)cc1` (stereo not drawn) [Example 71, 2-(4-Bromo-2-thienyl)-3-hydroxy-1-[4-(4-methylsulfonylphenyl)benzoyl]imidazolidin-4-one], the IC50 is reported as < 5 µM.

With `O=C1CN(C(=O)c2c(F)ccc([N+](=O)[O-])c2F)C(c2cc(Br)cs2)N1O` (stereo not drawn) [Example 106, 2-(4-Bromo-2-thienyl)-1-(2,6-difluoro-3-nitro-benzoyl)-3-hydroxy-imidazolidin-4-one] the IC50 was < 5 µM.

For `O=C1CN(C(=O)c2ccccc2F)C(c2ccc(Br)s2)N1O` (stereo not drawn) [Example 2, 2-(5-Bromo-2-thienyl)-1-(2-fluorobenzoyl)-3-hydroxy-imidazolidin-4-one], the IC50 was < 5 µM.

`C[C@@H](c1ccccc1)N1CC(=O)N(O)C1c1cc(I)cs1` (single isomer, unassigned) [Example 119b] was tested, and the IC50 was < 5 µM.

For `O=C1CN(C(=O)c2c(F)ccc(Br)c2F)C(c2csc(Br)c2)N1O` (stereo not drawn) [Example 101, 1-(3-Bromo-2,6-difluoro-benzoyl)-2-(5-bromo-3-thienyl)-3-hydroxy-imidazolidin-4-one], the IC50 was < 5 µM.

In the case of `O=C1CN(C(=O)c2ccccc2)C(c2cc(Br)cs2)N1O` (stereo not drawn) [Example 12, 1-Benzoyl-2-(4-bromo-2-thienyl)-3-hydroxy-imidazolidin-4-one], the IC50 is reported as < 5 µM.
